The values below come from patent publication US20130309252A1.

Chains of the proteins cited; added tags and fusions are not shown. Lines headed by an entry give the natural chain unless they say otherwise; changes in a name come on top.
UniProt O88792: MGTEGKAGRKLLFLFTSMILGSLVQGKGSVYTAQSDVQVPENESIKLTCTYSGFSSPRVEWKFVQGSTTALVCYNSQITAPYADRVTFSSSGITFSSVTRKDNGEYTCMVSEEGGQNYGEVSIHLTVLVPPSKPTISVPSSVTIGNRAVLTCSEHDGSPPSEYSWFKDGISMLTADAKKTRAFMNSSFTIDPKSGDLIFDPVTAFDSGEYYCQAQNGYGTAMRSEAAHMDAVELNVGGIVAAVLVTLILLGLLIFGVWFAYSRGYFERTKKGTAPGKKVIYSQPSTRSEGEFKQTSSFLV
UniProt Q9JI59: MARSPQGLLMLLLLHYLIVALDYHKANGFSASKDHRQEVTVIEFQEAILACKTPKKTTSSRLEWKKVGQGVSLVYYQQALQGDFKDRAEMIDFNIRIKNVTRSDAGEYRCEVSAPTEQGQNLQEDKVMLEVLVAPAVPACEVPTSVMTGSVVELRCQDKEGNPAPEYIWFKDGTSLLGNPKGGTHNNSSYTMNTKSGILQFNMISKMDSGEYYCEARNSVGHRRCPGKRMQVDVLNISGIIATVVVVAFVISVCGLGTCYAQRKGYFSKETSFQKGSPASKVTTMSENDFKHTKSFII

The target of assay [1] is GST-PDZI′ recombinant Grasp55 protein (murine). The experiment in a line: HTRF competition by unlabelled JAM-C peptide, relative affinity.
Assay [2] has the same target. The experiment in a line: HTRF, biotinylated peptide and GST fusion.

No constants are given. Whether binding was seen depends on the method and setting. Some binding calls cover weakened binding; strength is not graded here.

Regarding SQPSTRSEGEFKQTSSFLV (peptide, UniProt O88792 282-300, looked up, biotinylated (position not given)) [biotinylated C-terminal JAM-A peptide], the binding result in assay [1] and in assay [2] was “binds” in each case.
Regarding SKVTTMSENDFKHTKSFII (peptide, UniProt Q9JI59 280-298, looked up, biotinylated (position not given)) [biotinylated peptide corresponding to the last 19 amino-acids of JAM-B], the binding entry in assay [1] and in assay [2] was “binds” in each case.
